Results deposited as PubChem BioAssay AID504793 (Drosophila RNAi Screening Center, 2011)

Assay: 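Knock-downs allowing continued mitosis even though DNA is damaged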 (primary screen)
System: Drosophila S2R+ cells
Reagents: long dsRNA against Drosophila genes, about 0.25 µg dsRNA per well
Duration: 4 days of dsRNA, then 4 hours of drug before read-out
Challenge: doxorubicin 0.5 µM for 4 hours to cause double-strand breaks, in cells also given a low, harmless dose of dsRNA against nbs to sensitise the assay
Detection: 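Per-well count of mitotic cells stained for phospho-histone H3 after doxorubicin exposure, used as mitotic index; counts are raw and not normalised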
Scale: mitotic cells: higher = more cells in mitosis, weaker G2 arrest
Call rule: 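Genes are called active only when high mitotic counts were reproduced with independent dsRNAs and mitosis was checked for delay without damage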
Meaning of the calls: active = confirmed in follow-up tests; inactive = not confirmed
The deposit covers about 23,000 reagents; shown is a random part of those with a known target gene and a result. In the full data, 62 (0.27%) are marked active. 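Calls come from follow-up tests whose scores are not deposited, so confirmed genes may have low counts here; counts are not normalised per plate.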 Raw values are not corrected between plates. Reagents against one gene are numbered here. A plus sign joins genes that one reagent is predicted to hit.

gene,reagent,"mitotic cells, replicate 1","mitotic cells, replicate 2",call
CG11241,1,8,,inactive
CG11241,2,9,,inactive
Uhg1,1,,,inactive
CG30094,1,7,,inactive
CG30094,2,5,,inactive
Pka-R2,1,12,,inactive
Pka-R2,2,2,,inactive
BtbVII,1,4,,inactive
BtbVII,2,4,,inactive
BtbVII,3,11,,inactive
CG5890,1,4,,inactive
CG5645,1,4,,inactive
CG6073,1,15,,inactive
CG6073,2,9,,inactive
CG6073,3,6,,inactive
stx,1,16,,inactive
stx,2,2,,inactive
Arts + Apl,1,3,,inactive
Vrp1,1,7,,inactive
Vrp1,2,4,,inactive
CG10710,1,5,,inactive
CG7194,1,4,,inactive
CG12974,1,4,,inactive
Nup54,1,6,,inactive
CG11581,1,9,,inactive
CG15239,1,6,,inactive
CG15239,2,3,,inactive
Stlk,1,1,,inactive
Cyp304a1,1,8,,inactive
CG3618,1,4,,inactive
tfc,1,12,,inactive
tfc,2,10,,inactive
tfc,3,7,,inactive
tfc,4,6,,inactive
tfc,5,5,,inactive
CG8665,1,3,,inactive
CG9119,1,3,,inactive
CG9119,2,8,,inactive
CG13126,1,7,,inactive
CG13126,2,8,,inactive
Hibch,1,11,,inactive
Hibch,2,2,,inactive
CG7166,1,4,,inactive
Atg9,1,5,,inactive
Hmx,1,7,,inactive
Hmx,2,9,,inactive
CG10950,1,7,,inactive
CG16813,1,4,,inactive
CG30008,1,10,,inactive
CG30008,2,10,,inactive
RpL10,1,2,,inactive
eIF4A,1,12,,inactive
eIF4A,2,9,,inactive
CAHbeta,1,8,,inactive
CG31126,1,17,,inactive
CG5078,1,5,,inactive
CG11356,1,8,,inactive
Bap170,1,5,,inactive
Bap170,2,8,,inactive
Bap170,3,12,,inactive
Svil,1,3,,inactive
Svil,2,9,,inactive
Svil,3,5,,inactive
Svil,4,2,,inactive
Svil,5,8,,inactive
eIF3g2,1,3,,inactive
eIF3g2,2,8,,inactive
Abcd1,1,8,,inactive
CG42808 + CG42807,1,3,,inactive
CG42808 + CG42807,2,6,,inactive
nrv1,1,4,,inactive
CG30323,1,2,,inactive
MED23 + CG3700,1,6,,inactive
MED23 + CG3700,2,11,,inactive
MED23 + CG3700,3,11,,inactive
MED23 + CG3700,4,4,,inactive
ND-20,1,8,,inactive
Nach,1,6,,inactive
dare,1,5,,inactive
CG30472,1,11,,inactive
CG30472,2,4,,inactive
CG9132,1,4,,inactive
akirin,1,5,,inactive
akirin,2,4,,inactive
CG11414,1,6,,inactive
CG1231,1,4,,inactive
CG1231,2,7,,inactive
Fer3,1,10,,inactive
Fer3,2,8,,inactive
JhI-26,1,2,,inactive
JhI-26,2,5,,inactive
CG7025,1,,,inactive
rumi,1,12,,inactive
rumi,2,3,,inactive
CG11052,1,3,,inactive
AlaRS,1,9,,inactive
mtrm,1,16,,inactive
CG33233,1,4,,inactive
CG42382,1,9,,inactive
CG11882,1,8,,inactive
CG11882,2,5,,inactive
CG13747,1,5,,inactive
Cyp309a1,1,6,,inactive
HP1c,1,10,13,inactive
HP1c,2,3,,inactive
CG2278,1,8,,inactive
CG30036,1,25,,inactive
PGAP3,1,3,,inactive
Use1,1,4,,inactive
Use1,2,3,,inactive
Or45b,1,7,,inactive
Ak2,1,9,,inactive
HP4,1,3,,inactive
CG11019 (retired record),1,7,,inactive
CG11019 (retired record),2,10,,inactive
shtd,1,184,,inactive
shtd,2,22,,inactive
Rad1 + Sws1,1,5,,inactive
CG17191,1,10,,inactive
CG17191,2,4,,inactive
CG7149,1,9,,inactive
Chd64,1,14,,inactive
Chd64,2,2,,inactive
Orc4,1,7,,inactive
Orc4,2,4,,inactive
CG3906,1,9,,inactive
CG3906,2,5,,inactive
CG18284,1,4,,inactive
CG18284,2,7,,inactive
CG18284,3,2,,inactive
CG11345,1,7,,inactive
CG11345,2,13,,inactive
CG32845,1,6,,inactive
CG32845,2,9,,inactive
Nox,1,9,,inactive
Nox,2,5,,inactive
Nox,3,5,,inactive
Nox,4,8,,inactive
Rx,1,4,,inactive
Rx,2,7,,inactive
Rx,3,6,,inactive

Individual results from the entries so far.
Entry of CAHbeta in “mitotic cells, replicate 1”: 8
Entry for CG3906 #1 under “call”: inactive
For “call”, CG9119 #1 reads inactive
Result for Nup54 in “mitotic cells, replicate 1”: 6
For “mitotic cells, replicate 1”, Arts + Apl reads 3
Value for akirin #1 under “mitotic cells, replicate 1”: 5
